Measured values as given in the supplement of paper PMC10849652.
Some of the results follow.

Sequences of proteins named here, by UniProt entry; tags and fusion partners are left off. A change or cut given only in a name is not applied to a line headed by its entry.
UniProt Q5RI15: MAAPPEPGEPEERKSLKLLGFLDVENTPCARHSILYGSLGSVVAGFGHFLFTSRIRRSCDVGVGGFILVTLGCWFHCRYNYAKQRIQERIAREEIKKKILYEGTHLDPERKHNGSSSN
UniProt Q5TZA2: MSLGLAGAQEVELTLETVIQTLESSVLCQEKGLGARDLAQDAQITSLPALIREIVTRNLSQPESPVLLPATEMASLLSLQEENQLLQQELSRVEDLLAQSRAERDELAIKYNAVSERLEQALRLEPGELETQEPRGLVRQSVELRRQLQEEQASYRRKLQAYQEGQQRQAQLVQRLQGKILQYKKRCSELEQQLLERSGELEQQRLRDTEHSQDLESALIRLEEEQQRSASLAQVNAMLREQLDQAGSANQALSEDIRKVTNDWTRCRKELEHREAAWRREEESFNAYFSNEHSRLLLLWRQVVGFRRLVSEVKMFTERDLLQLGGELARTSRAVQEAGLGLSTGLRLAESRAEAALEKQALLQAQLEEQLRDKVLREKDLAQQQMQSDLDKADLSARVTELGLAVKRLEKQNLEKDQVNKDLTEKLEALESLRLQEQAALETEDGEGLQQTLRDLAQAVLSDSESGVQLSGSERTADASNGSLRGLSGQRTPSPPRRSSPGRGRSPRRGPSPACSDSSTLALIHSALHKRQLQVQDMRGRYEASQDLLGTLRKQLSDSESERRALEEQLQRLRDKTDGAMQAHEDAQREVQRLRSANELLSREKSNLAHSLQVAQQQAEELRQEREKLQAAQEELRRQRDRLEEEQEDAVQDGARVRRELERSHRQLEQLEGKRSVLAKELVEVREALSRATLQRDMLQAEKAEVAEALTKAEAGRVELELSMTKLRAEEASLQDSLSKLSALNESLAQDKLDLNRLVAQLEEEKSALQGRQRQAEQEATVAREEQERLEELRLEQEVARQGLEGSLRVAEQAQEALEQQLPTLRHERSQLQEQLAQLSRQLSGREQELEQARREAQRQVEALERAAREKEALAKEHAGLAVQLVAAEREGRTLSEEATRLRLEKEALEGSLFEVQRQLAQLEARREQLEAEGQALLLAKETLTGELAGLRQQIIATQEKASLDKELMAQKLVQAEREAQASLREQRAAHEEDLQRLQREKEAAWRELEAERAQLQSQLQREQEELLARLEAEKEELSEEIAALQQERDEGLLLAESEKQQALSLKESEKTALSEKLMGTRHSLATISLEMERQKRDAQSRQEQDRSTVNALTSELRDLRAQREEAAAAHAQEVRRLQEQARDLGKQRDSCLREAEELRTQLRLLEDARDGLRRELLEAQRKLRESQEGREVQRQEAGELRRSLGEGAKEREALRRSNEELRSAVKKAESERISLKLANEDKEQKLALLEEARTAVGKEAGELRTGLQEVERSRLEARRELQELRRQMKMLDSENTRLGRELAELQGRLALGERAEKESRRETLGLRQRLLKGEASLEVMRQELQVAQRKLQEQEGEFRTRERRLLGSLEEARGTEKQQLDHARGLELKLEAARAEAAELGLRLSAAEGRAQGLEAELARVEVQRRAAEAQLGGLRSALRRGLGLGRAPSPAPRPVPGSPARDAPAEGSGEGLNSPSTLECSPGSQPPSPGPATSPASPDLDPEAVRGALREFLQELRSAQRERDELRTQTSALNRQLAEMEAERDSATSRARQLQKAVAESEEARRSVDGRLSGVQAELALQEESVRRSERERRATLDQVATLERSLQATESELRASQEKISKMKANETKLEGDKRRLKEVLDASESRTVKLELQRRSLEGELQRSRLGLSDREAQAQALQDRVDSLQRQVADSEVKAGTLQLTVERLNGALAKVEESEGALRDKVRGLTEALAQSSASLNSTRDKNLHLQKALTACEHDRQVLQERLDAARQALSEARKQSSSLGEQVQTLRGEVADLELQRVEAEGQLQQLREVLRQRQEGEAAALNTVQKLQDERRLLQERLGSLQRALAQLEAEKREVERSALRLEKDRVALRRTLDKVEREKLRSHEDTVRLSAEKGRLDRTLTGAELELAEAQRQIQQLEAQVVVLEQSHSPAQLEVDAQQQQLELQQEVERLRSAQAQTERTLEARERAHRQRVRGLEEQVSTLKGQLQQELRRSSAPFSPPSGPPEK
UniProt Q9Y678: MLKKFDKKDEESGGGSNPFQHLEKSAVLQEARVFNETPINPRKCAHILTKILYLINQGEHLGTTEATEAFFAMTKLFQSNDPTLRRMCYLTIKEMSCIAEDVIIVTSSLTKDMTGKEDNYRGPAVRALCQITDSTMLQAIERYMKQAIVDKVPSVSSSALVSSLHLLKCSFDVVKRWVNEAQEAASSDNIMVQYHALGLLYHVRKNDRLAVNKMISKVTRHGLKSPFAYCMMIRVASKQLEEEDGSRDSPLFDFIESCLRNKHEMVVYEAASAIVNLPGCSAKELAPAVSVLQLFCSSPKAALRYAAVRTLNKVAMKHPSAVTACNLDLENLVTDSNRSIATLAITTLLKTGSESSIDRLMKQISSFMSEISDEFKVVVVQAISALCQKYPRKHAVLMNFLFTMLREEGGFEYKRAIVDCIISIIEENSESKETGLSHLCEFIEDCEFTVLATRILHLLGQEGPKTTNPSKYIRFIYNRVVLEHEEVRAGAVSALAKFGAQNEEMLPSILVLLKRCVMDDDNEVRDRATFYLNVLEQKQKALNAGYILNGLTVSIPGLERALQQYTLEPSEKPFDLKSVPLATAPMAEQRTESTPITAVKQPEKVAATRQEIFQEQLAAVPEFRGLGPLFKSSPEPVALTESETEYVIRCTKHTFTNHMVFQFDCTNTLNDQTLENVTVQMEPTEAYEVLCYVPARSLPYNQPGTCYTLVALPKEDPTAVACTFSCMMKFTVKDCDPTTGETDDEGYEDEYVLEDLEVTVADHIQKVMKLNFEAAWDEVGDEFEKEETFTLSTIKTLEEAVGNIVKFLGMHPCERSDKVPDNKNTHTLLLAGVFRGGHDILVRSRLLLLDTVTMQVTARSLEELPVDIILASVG
UniProt Q8N8Q8: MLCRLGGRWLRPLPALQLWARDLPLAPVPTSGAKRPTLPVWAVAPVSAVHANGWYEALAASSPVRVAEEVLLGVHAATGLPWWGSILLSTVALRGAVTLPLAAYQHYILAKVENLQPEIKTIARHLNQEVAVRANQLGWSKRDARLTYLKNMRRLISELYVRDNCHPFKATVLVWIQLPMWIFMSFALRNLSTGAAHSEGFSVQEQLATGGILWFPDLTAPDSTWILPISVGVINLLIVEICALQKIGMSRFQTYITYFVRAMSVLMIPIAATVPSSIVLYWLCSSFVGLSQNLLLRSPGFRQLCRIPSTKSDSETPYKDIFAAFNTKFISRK
UniProt Q6UUV9: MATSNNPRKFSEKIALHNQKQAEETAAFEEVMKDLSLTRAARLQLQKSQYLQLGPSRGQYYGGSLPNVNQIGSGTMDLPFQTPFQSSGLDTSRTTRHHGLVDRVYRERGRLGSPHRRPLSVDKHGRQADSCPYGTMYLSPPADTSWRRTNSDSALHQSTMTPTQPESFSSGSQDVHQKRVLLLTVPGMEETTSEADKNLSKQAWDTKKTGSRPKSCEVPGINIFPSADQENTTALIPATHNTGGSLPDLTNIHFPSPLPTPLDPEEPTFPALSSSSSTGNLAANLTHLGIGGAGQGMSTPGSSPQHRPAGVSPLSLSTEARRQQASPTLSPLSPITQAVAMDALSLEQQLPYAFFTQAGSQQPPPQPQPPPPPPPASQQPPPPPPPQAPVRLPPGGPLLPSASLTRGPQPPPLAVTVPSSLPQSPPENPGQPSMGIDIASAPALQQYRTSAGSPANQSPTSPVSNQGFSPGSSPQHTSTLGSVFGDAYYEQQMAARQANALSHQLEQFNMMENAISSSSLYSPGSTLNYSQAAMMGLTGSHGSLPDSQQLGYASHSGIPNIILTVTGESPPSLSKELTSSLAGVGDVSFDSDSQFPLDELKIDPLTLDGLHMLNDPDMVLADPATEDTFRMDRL
UniProt Q10570: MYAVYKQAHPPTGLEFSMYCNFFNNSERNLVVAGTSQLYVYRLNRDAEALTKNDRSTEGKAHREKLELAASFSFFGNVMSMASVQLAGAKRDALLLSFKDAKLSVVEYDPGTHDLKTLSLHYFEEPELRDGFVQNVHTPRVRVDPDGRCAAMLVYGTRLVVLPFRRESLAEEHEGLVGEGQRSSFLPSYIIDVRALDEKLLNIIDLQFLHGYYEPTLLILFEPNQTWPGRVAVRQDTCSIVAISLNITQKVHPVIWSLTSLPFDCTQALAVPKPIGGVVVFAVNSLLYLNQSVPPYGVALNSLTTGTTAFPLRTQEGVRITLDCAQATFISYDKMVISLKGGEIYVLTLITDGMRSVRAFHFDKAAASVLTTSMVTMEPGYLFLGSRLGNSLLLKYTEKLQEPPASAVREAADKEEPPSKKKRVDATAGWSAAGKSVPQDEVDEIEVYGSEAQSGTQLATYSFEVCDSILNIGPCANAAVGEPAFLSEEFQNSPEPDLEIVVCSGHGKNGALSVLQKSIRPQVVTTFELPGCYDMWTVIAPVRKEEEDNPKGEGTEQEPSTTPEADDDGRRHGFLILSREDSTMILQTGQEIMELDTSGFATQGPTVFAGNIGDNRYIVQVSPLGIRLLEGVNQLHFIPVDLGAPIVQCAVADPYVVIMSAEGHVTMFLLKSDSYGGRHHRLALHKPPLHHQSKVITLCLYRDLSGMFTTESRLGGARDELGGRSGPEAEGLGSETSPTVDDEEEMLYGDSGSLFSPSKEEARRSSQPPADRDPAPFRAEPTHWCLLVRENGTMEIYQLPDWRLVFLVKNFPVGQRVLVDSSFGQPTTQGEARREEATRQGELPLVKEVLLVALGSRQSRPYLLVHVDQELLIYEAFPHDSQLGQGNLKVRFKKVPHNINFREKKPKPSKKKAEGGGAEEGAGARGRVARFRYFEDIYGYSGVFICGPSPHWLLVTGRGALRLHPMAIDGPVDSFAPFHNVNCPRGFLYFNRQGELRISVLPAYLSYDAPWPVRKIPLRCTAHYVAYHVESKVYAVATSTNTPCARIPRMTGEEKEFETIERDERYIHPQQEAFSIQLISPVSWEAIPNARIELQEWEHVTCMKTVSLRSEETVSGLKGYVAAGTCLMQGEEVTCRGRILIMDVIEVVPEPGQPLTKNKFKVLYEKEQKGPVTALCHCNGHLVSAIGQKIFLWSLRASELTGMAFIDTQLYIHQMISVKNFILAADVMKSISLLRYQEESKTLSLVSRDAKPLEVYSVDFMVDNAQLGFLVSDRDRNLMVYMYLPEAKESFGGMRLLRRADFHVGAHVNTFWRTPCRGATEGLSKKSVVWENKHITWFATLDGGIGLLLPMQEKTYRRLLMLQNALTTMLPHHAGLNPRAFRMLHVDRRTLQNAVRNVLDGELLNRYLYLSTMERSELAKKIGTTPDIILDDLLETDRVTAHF
UniProt Q9BRF8, whole entry, looked up: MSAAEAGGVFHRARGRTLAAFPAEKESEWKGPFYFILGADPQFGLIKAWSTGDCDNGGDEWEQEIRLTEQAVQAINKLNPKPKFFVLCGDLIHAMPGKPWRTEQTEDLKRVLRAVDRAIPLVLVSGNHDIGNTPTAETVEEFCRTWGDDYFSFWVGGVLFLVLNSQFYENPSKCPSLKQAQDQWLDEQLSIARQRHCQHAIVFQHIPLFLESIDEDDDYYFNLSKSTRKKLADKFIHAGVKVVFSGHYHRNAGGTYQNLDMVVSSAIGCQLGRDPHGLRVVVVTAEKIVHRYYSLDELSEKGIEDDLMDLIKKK
UniProt Q7Z5Q1: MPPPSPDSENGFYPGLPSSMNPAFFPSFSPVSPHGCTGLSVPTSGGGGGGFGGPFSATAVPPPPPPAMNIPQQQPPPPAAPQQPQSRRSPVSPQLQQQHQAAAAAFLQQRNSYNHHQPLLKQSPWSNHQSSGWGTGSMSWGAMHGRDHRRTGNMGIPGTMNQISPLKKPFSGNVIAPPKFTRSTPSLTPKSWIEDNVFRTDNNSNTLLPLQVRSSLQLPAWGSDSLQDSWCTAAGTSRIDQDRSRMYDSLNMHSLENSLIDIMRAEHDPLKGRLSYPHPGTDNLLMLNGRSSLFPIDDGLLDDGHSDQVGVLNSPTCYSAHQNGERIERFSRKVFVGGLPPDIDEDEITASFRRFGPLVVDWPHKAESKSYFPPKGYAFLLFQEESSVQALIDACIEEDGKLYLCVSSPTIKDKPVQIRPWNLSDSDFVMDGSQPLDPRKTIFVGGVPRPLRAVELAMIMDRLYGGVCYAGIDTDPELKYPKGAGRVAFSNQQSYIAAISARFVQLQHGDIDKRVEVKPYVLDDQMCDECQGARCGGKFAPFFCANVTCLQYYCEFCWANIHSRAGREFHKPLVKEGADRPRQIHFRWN
UniProt Q86VU5: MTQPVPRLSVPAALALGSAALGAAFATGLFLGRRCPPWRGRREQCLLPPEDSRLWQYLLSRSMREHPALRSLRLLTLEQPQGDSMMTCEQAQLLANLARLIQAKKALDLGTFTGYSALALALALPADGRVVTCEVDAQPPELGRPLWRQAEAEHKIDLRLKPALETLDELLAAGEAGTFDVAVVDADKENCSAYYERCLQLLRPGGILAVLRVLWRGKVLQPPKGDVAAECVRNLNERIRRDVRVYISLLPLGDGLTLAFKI

Tests used:
Assay in all cases: log2 fold change, soluble protein after heating vs DMSO (PISA); higher = thermal stabilisation; K562 cells, 10 uM, 30 min; active = over 0.2 and 3.5 SD of the protein, either way, in both replicates (recomputed)
erlotinib = compound: C#Cc1cccc(Nc2ncnc3cc(OCCOC)c(OCCOC)cc23)c1 [erlotinib]
Summary of the method: (§1)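 Soluble protein was quantified by TMTpro 16plex LC-MS/MS after channel sums were equalised. It was obtained as the supernatant after 21,000xg for 90 min from pooled aliquots of K562 cells (2×10^6 cells/mL, 10 μM compound, 30 min) heated for 3 min across 48°C-58°C and extracted in PBS with 0.5% NP-40 at 4°C. Thermal stability values are relative to control samples and come from duplicates. They are given as log2 fold changes.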

[1] = compound: C/C(=N\NC(=O)C1=CC(=CC=C1)S(=O)(=O)N2CCOCC2)/C3=C(C=CC(=C3)Cl)O
Summary of the method: as §1

[2] = compound: C1=CC(=C(C=C1Cl)C2=NC3=NC=CN=C3C(=N2)NC4=CC=NC=C4)F
Summary of the method: as §1

[3] = compound: C1=CC(=CC=C1C2=NC3=C(N2)C=C(C=C3)C(=O)N)OC4=CC=C(C=C4)Cl
Summary of the method: as §1

[4] = compound: C1=CC2=C(C=CC(=C2)/C=C\3/C(=O)NC(=NCC4=CC=CS4)S3)N=C1
Summary of the method: as §1

[5] = compound: C1=CC2=NC=CN=C2C=C1/C=C/3\C(=O)NC(=O)S3
Summary of the method: as §1

[6] = compound: C1=CC=C(C=C1)C2=NC(=C(N2)C3=CC=NC=C3)C4=CC(=C(C=C4)Cl)O
Summary of the method: as §1

[7] = compound: C1=CC=C2C(=C1)C3=NNC4=CC=CC(=C43)C2=O
Summary of the method: as §1

[8] = compound: C1CCN(C1)C(=O)NC2=CC=CC(=C2)NC3=NC=C(C(=N3)NCCC4=CN=CN4)Br
Summary of the method: as §1

[9] = compound: C1CN(CCC1(CC2=CC=C(C=C2)Cl)N)C3=NC=NC4=C3C=CN4
Summary of the method: as §1

| Target | log2 fold change (erlotinib) | log2 fold change [1] | log2 fold change [2] | log2 fold change [3] | log2 fold change [4] | log2 fold change [5] | log2 fold change [6] | log2 fold change [7] | log2 fold change [8] | log2 fold change [9] |
| --- | --- | --- | --- | --- | --- | --- | --- | --- | --- | --- |
| COX20 isoform 2 (UniProt Q5RI15) | inactive: 0.037 | inactive: 0.013 | inactive: 0.072 | inactive: 0.008 | inactive: 0.057 | inactive: 0.016 | inactive: -0.092 | inactive: -0.061 | inactive: 0 | inactive: 0.03 |
| COX6C (UniProt P09669) | inactive: -0.013 | inactive: 0.036 | inactive: 0.042 | inactive: -0.032 | inactive: 0.021 | inactive: 0.001 | inactive: 0.024 | inactive: 0.012 | inactive: -0.017 | inactive: -0.02 |
| CRELD1 isoform 2 (UniProt Q96HD1) | inactive: -0.012 | inactive: -0.034 | inactive: -0.024 | inactive: -0.048 | inactive: 0.276 | inactive: 0.007 | inactive: -0.095 | inactive: -0.002 | inactive: 0.265 | inactive: -0.027 |
| CROCC (UniProt Q5TZA2) | inactive: 0.07 | inactive: -0.111 | inactive: 0.08 | inactive: -0.068 | inactive: 0.244 | inactive: 0.003 | inactive: -0.028 | inactive: 0.097 | inactive: 0.028 | inactive: -0.03 |
| CPSF7 isoform 3 (UniProt Q8N684) | inactive: -0.035 | inactive: 0.054 | inactive: -0.015 | inactive: 0.041 | inactive: -0.001 | inactive: 0.005 | inactive: 0.01 | inactive: -0.005 | inactive: -0.035 | inactive: -0.016 |
| CRYZ (UniProt Q08257) | inactive: 0.013 | inactive: 0.008 | inactive: 0.089 | inactive: -0.028 | inactive: -0.001 | inactive: -0.016 | inactive: -0.025 | inactive: 0.008 | inactive: 0.027 | inactive: 0.028 |
| CPLX1 (UniProt O14810) | inactive: -0.256 | inactive: 0.095 | inactive: 0.021 | inactive: -0.148 | inactive: 0.131 | inactive: 0.117 | inactive: 0.014 | inactive: -0.235 | – | – |
| CPSF6 isoform 2 (UniProt Q16630) | inactive: 0.023 | inactive: 0.079 | inactive: -0.072 | inactive: 0.122 | inactive: -0.04 | inactive: -0.026 | inactive: -0.002 | inactive: -0.016 | inactive: -0.021 | inactive: -0.135 |
| COPS6 (UniProt Q7L5N1) | inactive: -0.065 | inactive: 0.045 | inactive: 0.038 | inactive: 0 | inactive: -0.034 | inactive: 0.02 | inactive: 0.112 | inactive: -0.006 | inactive: -0.034 | inactive: 0.025 |
| COX15 (UniProt Q7KZN9) | inactive: -0.01 | inactive: -0.008 | inactive: 0.067 | inactive: -0.008 | inactive: 0.03 | inactive: 0.145 | inactive: -0.009 | inactive: -0.019 | inactive: 0.01 | inactive: 0.057 |
| COPG1 (UniProt Q9Y678) | inactive: -0.042 | inactive: 0.047 | inactive: 0.018 | inactive: 0 | inactive: 0 | inactive: 0.017 | inactive: 0.022 | inactive: 0.03 | inactive: 0.002 | inactive: 0.006 |
| CORO1A (UniProt P31146) | inactive: -0.009 | inactive: 0.069 | inactive: 0.034 | inactive: -0.003 | inactive: 0.052 | inactive: 0.027 | inactive: 0.01 | inactive: -0.006 | inactive: -0.059 | inactive: -0.01 |
| COX19 (UniProt Q49B96) | inactive: -0.017 | inactive: 0 | inactive: 0.019 | inactive: 0.033 | inactive: 0.029 | inactive: 0.038 | inactive: -0.04 | inactive: -0.02 | inactive: -0.023 | inactive: 0.018 |
| CPT1A (UniProt P50416) | inactive: -0.008 | inactive: 0.042 | inactive: -0.111 | inactive: 0.008 | inactive: -0.028 | inactive: -0.096 | inactive: 0 | inactive: 0.081 | inactive: -0.055 | inactive: 0.076 |
| COX18 (UniProt Q8N8Q8) | inactive: 0.002 | inactive: 0 | inactive: 0.033 | inactive: -0.03 | inactive: 0.001 | inactive: 0.021 | inactive: -0.03 | inactive: -0.082 | inactive: 0.017 | inactive: 0.031 |
| CSNK1A1 (UniProt P48729) | inactive: 0.073 | inactive: 0.002 | inactive: -0.028 | inactive: -0.002 | inactive: -0.008 | inactive: 0.018 | inactive: -0.029 | inactive: -0.088 | inactive: 0.001 | inactive: -0.064 |
| CREB3L2 (UniProt Q70SY1) | inactive: 0.424 | inactive: 0.104 | inactive: 0.057 | inactive: -0.264 | inactive: 0.113 | inactive: -0.174 | inactive: -0.1 | inactive: -0.045 | inactive: -0.206 | inactive: 0.173 |
| CRTC1 isoform 2 (UniProt Q6UUV9) | inactive: 0.007 | inactive: 0.07 | inactive: -0.228 | inactive: 0.068 | inactive: 0.185 | inactive: -0.052 | inactive: -0.229 | inactive: -0.051 | inactive: -0.053 | inactive: 0.021 |
| CPSF1 (UniProt Q10570) | inactive: -0.004 | inactive: -0.057 | inactive: -0.108 | inactive: 0.039 | inactive: -0.012 | inactive: 0.02 | inactive: -0.062 | inactive: -0.045 | inactive: 0.041 | inactive: -0.037 |
| CPNE2 (UniProt Q96FN4) | inactive: -0.156 | inactive: -0.072 | inactive: -0.03 | inactive: -0.229 | inactive: -0.108 | inactive: 0.109 | inactive: -0.075 | inactive: 0.075 | inactive: 0.124 | inactive: -0.095 |
| CPPED1 (UniProt Q9BRF8) | inactive: -0.012 | inactive: -0.032 | inactive: 0.023 | inactive: 0.029 | inactive: 0.03 | inactive: 0.02 | inactive: -0.016 | inactive: -0.005 | inactive: 0.02 | inactive: 0.029 |
| COPG2 (UniProt Q9UBF2) | inactive: -0.017 | inactive: 0.013 | inactive: -0.026 | inactive: -0.007 | inactive: 0.036 | inactive: -0.022 | inactive: 0.015 | inactive: 0.002 | inactive: -0.039 | inactive: 0.017 |
| COX5B (UniProt P10606) | inactive: -0.068 | inactive: 0.062 | inactive: 0.16 | inactive: -0.041 | inactive: 0.032 | inactive: 0.03 | inactive: 0.114 | inactive: -0.023 | inactive: -0.067 | inactive: -0.003 |
| CRK (UniProt P46108) | inactive: -0.022 | inactive: 0.035 | inactive: -0.002 | inactive: -0.012 | inactive: -0.011 | inactive: 0.03 | inactive: -0.076 | inactive: 0.049 | inactive: 0.016 | inactive: 0.001 |
| CPEB2 isoform 9 (UniProt Q7Z5Q1) | inactive: 0.206 | inactive: 0.16 | inactive: 0.037 | inactive: 0.207 | inactive: -0.044 | inactive: -0.066 | inactive: 0.101 | inactive: -0.084 | inactive: 0.061 | inactive: 0.023 |
| COMTD1 (UniProt Q86VU5) | inactive: 0.016 | inactive: 0.041 | inactive: 0.014 | inactive: 0.029 | inactive: 0.053 | inactive: 0.028 | inactive: 0.038 | inactive: -0.052 | inactive: 0.038 | inactive: 0.019 |
| COTL1 (UniProt Q14019) | inactive: 0.013 | inactive: 0.043 | inactive: 0.033 | inactive: -0.016 | inactive: -0.006 | inactive: 0.046 | inactive: 0.009 | inactive: 0.006 | inactive: -0.005 | inactive: 0.016 |
| CSNK2B (UniProt P67870) | inactive: -0.021 | inactive: -0.024 | inactive: -0.017 | inactive: -0.007 | inactive: 0.123 | active: 0.324 | inactive: 0.031 | inactive: 0.084 | inactive: -0.031 | inactive: -0.023 |
| COPE (UniProt O14579) | inactive: -0.037 | inactive: 0.016 | inactive: 0.07 | inactive: 0 | inactive: 0.051 | inactive: 0.015 | inactive: -0.037 | inactive: -0.002 | inactive: 0.086 | inactive: -0.012 |
| CSNK1A1L (UniProt Q8N752) | inactive: -0.078 | inactive: -0.013 | inactive: -0.062 | inactive: 0.093 | inactive: -0.026 | inactive: 0.05 | inactive: -0.024 | inactive: -0.062 | inactive: -0.045 | inactive: -0.057 |

Some of the entries so far, tab-delimited:
Target	log2 fold change (erlotinib)	log2 fold change [1]	log2 fold change [2]	log2 fold change [3]	log2 fold change [4]	log2 fold change [5]	log2 fold change [6]	log2 fold change [7]	log2 fold change [8]	log2 fold change [9]
COX19 (UniProt Q49B96)	inactive: -0.017	inactive: 0	inactive: 0.019	inactive: 0.033	inactive: 0.029	inactive: 0.038	inactive: -0.04	inactive: -0.02	inactive: -0.023	inactive: 0.018
CPT1A (UniProt P50416)	inactive: -0.008	inactive: 0.042	inactive: -0.111	inactive: 0.008	inactive: -0.028	inactive: -0.096	inactive: 0	inactive: 0.081	inactive: -0.055	inactive: 0.076
COX18 (UniProt Q8N8Q8)	inactive: 0.002	inactive: 0	inactive: 0.033	inactive: -0.03	inactive: 0.001	inactive: 0.021	inactive: -0.03	inactive: -0.082	inactive: 0.017	inactive: 0.031
CSNK1A1 (UniProt P48729)	inactive: 0.073	inactive: 0.002	inactive: -0.028	inactive: -0.002	inactive: -0.008	inactive: 0.018	inactive: -0.029	inactive: -0.088	inactive: 0.001	inactive: -0.064
CREB3L2 (UniProt Q70SY1)	inactive: 0.424	inactive: 0.104	inactive: 0.057	inactive: -0.264	inactive: 0.113	inactive: -0.174	inactive: -0.1	inactive: -0.045	inactive: -0.206	inactive: 0.173
CRTC1 isoform 2 (UniProt Q6UUV9)	inactive: 0.007	inactive: 0.07	inactive: -0.228	inactive: 0.068	inactive: 0.185	inactive: -0.052	inactive: -0.229	inactive: -0.051	inactive: -0.053	inactive: 0.021
CPSF1 (UniProt Q10570)	inactive: -0.004	inactive: -0.057	inactive: -0.108	inactive: 0.039	inactive: -0.012	inactive: 0.02	inactive: -0.062	inactive: -0.045	inactive: 0.041	inactive: -0.037
